# The whole screen tested about 300,000 compounds, of which about 3,700 (1.2%) were called active. The inconclusive results got no clear call from the source; some entries with a clear call stand among them for comparison. The call rests on the fitted dose curve; tested in HEK293 cells. Where the call is inconclusive, the potency comes from a doubtful curve fit.
# Experiment: qHTS for Inhibitors of binding or entry into cells for Lassa Virus; further: nearly all actives have a fitted effect of over 50% in size
# Conditions: Lassa virus pseudotype entry inhibition, cell reporter; series mostly up to 37.9 µM
# Potency means the concentration at half of the fitted maximal effect.
row,SMILES,Potency
1,Cc1ccccc1Nc1nc(N)nc(COC(=O)[C@@H](NC(=O)c2ccccc2Cl)C(C)C)n1,"inconclusive: 28.2 µM [inhibitor, partial curve, poor fit]"
2,COc1ccc(Nc2c3c(nc4ccc(NC(=O)c5cc(Cl)ccc5OC)cc24)CCCC3)cc1OC,"inconclusive: 6.31 µM [inhibitor, partial curve, poor fit]"
3,O=C(Nc1ccc(C(=O)OCc2cc(=O)n3ccsc3n2)cc1)c1cccc(F)c1,"inconclusive: 6.31 µM [inhibitor, single point]"
4,Cc1ccc(Nc2nc(N/N=C\c3ccc4c(c3)OCO4)nc(N3CCOCC3)n2)cc1,"inconclusive: 14.1 µM [inhibitor, partial curve, poor fit]"
5,CS(=O)(=O)c1ccc2nc(NC(=O)C3CCCO3)sc2c1 (centres undefined),"inconclusive: 0.112 µM [activator, full curve, poor fit]"
6,O=C(NCc1cccc(Cl)c1)c1cc(=O)[nH]c2ccccc12,"inconclusive: 15.8 µM [inhibitor, partial curve, poor fit]"
7,O=C(COc1ccc(C(=O)NCc2cccnc2)cc1)Nc1cccc(C(F)(F)F)c1,inactive
8,CC(C)Oc1ccc(CNC(=O)c2cccc(NC(=O)c3nsc4ccccc34)c2)cc1,"inconclusive: 35.5 µM [inhibitor, single point]"
9,Cc1ccccc1Nc1nc(N)nc(COC(=O)c2ccco2)n1,"inconclusive: 8.91 µM [activator, partial curve, poor fit]"
10,COc1cc(C(=O)NNC(=S)NC(=O)c2ccc(F)cc2)cc(OC)c1OC,"inconclusive: 28.2 µM [inhibitor, single point]"
11,O=C(CSc1nc2ccccc2c(=O)n1CCCO)N1CCc2ccccc21,inactive
12,CCOC(=O)c1[nH]c2ccc(OC)cc2c1NC(=O)CCN1CCN(Cc2ccccc2)CC1,"inconclusive: 3.55 µM [inhibitor, single point]"
13,CCN(CC)S(=O)(=O)c1ccc(NC(=O)C(C)N(c2ccccc2)S(C)(=O)=O)cc1 (centres undefined),"inconclusive: 22.4 µM [inhibitor, partial curve, poor fit]"
14,Nc1nc2ccccc2n1/N=C/c1cccnc1,"inconclusive: 3.55 µM [activator, full curve]"
15,COc1ccc(NC(=O)C(=O)NCc2ccco2)c(OC)c1,inactive
16,CCc1cccc2c(C(=O)CN3C(=O)NC(C)(c4cccc5ccccc45)C3=O)c[nH]c12 (centres undefined),"inconclusive: 14.1 µM [inhibitor, single point]"
17,CC1C(=O)N(Cc2cn(CC3CCCCC3)nn2)CCS(=O)(=O)N1Cc1ccc(-c2ccc(Cl)c(Cl)c2)cc1 (centres undefined),"inconclusive: 12.5 µM [inhibitor, partial curve, poor fit]"
18,COCCn1cnc2c1c(=O)n(CC(=O)NC(=O)NC(C)(C)C)c(=O)n2Cc1ccccc1,inactive
19,O=C(N/N=C/c1ccc(O)c(O)c1)c1cccc(S(=O)(=O)N2CCCC2)c1,"inconclusive: 0.0891 µM [inhibitor, full curve, poor fit]"
20,CCCCCN(C(=O)CCC(=O)OCc1ccc(C(C)C)cc1)c1c(N)n(CCCC)c(=O)[nH]c1=O,"inconclusive: 7.08 µM [inhibitor, full curve]"

# Reformatted tab-delimited: part of the list above.
row	SMILES	Potency
5	CS(=O)(=O)c1ccc2nc(NC(=O)C3CCCO3)sc2c1 (centres undefined)	inconclusive: 0.112 µM [activator, full curve, poor fit]
15	COc1ccc(NC(=O)C(=O)NCc2ccco2)c(OC)c1	inactive

# Additional results follow:

row,SMILES,Potency
1,Cc1ccc(C(=O)/C=C/Nc2cccc(O)c2)cc1,"inconclusive: 29.1 µM [inhibitor, single point]"
2,COc1cccc(NC(=O)N(CCCN2CCOCC2)C(C)c2cc3cccc(OC)c3o2)c1 (centres undefined),"inconclusive: 35.5 µM [inhibitor, partial curve, poor fit]"
3,CN(C)c1ccc(C(=O)Nc2ccc(-c3nc4ccccc4o3)cc2)cc1,"inconclusive: 6.31 µM [activator, single point]"
4,Cc1cc(NC(=O)C2CCCN(S(=O)(=O)c3cn(C)cn3)C2)ccc1Br (centres undefined),"inconclusive: 35.5 µM [inhibitor, single point]"
5,CCCCOc1ccc(C(=O)NCC(=O)NCC2CCCO2)cc1 (centres undefined),inactive
6,Clc1ccsc1-c1ccc2ccccc2n1,"inconclusive: 5.62 µM [activator, single point]"
7,Cc1nc2sc3c(c2c(=O)n1/N=C/c1ccco1)CCCC3,inactive
8,O=C(CNC(=O)c1ccc2c(c1)OCO2)N/N=C/c1cc(Br)ccc1O,"inconclusive: 15.8 µM [inhibitor, single point]"
9,COc1ccc(N2Cc3cccc(C(=O)Nc4cccc(F)c4)c3C2=O)cc1,"inconclusive: 3.16 µM [activator, full curve, poor fit]"
10,O=C(CN1CCN(S(=O)(=O)c2ccc(Cl)c(Cl)c2)CC1)N1CCCC1,inactive
11,O=C(N/N=C/c1ccco1)c1cc(-c2ccc3ccccc3c2)n[nH]1,"inconclusive: 6.31 µM [inhibitor, partial curve, poor fit]"
12,COc1ccc(NC(=O)CCCn2c(=O)c3sccc3n(Cc3ccccc3C)c2=O)cc1,"inconclusive: 35.5 µM [inhibitor, single point]"
13,CN(C)S(=O)(=O)c1cc(NC(=O)CN2CCOCC2)ccc1Cl,"inconclusive: 10 µM [activator, partial curve, poor fit]"
14,CC1=C(C(=O)OCc2ccccc2)C(c2ccco2)C2=C(CC(C)(C)CC2=O)N1 (centres undefined),"inconclusive: 22.4 µM [inhibitor, single point]"
15,Nn1c(SCc2nc3ccccc3[nH]2)nnc1-c1ccccc1,inactive
16,CCOC(=O)C1CCCN(S(=O)(=O)c2ccc3c(c2)CC(C)N3C(=O)C2CC2)C1 (centres undefined),"inconclusive: 2.51 µM [inhibitor, full curve, poor fit]"
17,COc1cccc(-c2ccc(C#N)c(SCC(=O)NCCc3cccc(Cl)c3)n2)c1,"inconclusive: 11.6 µM [inhibitor, partial curve, poor fit]"
18,C=Cc1ccc(Cn2c(=O)n(-c3ccc(C)cc3)c(=O)c3c2c2cc(OC)ccc2n3C)cc1,"inconclusive: 20 µM [activator, single point]"
19,COCc1cc(C)nc(OCC(=O)N/N=C/c2ccc(-c3cc([N+](=O)[O-])ccc3C)o2)c1C#N,inactive

# Source: PubChem BioAssay AID540256 (National Center for Advancing Translational Sciences (NCATS), 2011)
